PubChem BioAssay AID1053208 – Peter MacCallum Cancer Centre | 2014
Purpose: 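Find knock-downs that sensitise mouse osteosarcoma cells to doxorubicin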 (primary screen). System: mouse osteosarcoma cells, early-passage culture from an engineered mouse model of fibroblastic bone tumour. Reagents: siRNA pool against mouse genes, 40 nM. Time to read-out: about 120 h (48 h before drug, then 72 h with drug). Treatment: doxorubicin 100 nM for 72 h, roughly 30-40% inhibitory dose. Measurement: 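Viability read as ATP luminescence after 72 h of 100 nM doxorubicin or none, duplicate wells averaged, scaled to non-targeting siRNA, then expressed as robust z-scores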. Direction: viability z-score with doxorubicin: higher = more viable cells under doxorubicin; viability z-score without drug: higher = more viable cells with knock-down alone. Call rule: 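Called active if knock-down leaves viability unchanged without drug (z within -2 to 2) but lowers it with doxorubicin (z at or under -2)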.
Shown is an unselected part of about 17,000 reagents tested. 788 of all reagents (4.7%) count as active. 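Calls rest on z-score classes alone; an extra cut-off of viability at most 70% of control was not applied to them.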 Unmarked entries are inactive. Not all columns of the deposit are shown.

Hps4 → combined z-score class: no change with or without drug; viability z-score with doxorubicin: 0.67; viability z-score without drug: 1.01
Rala → combined z-score class: no change with or without drug; viability z-score with doxorubicin: 1.12; viability z-score without drug: -0.51
A430005L14Rik → combined z-score class: no change with or without drug; viability z-score with doxorubicin: -0.22; viability z-score without drug: -0.67
Kcnk4 → combined z-score class: no change with or without drug; viability z-score with doxorubicin: 0.22; viability z-score without drug: -1.52
Cuedc2 → combined z-score class: no change with or without drug; viability z-score with doxorubicin: 0.22; viability z-score without drug: -0.51
Gm10336 → combined z-score class: no change with or without drug; viability z-score with doxorubicin: 0.45; viability z-score without drug: 0.17
Ifit3 → combined z-score class: no change with or without drug; viability z-score with doxorubicin: -0.79; viability z-score without drug: -1.35
Rtl3 → combined z-score class: no change with or without drug; viability z-score with doxorubicin: 0; viability z-score without drug: -1.18
Gkn1 → combined z-score class: no change with or without drug; viability z-score with doxorubicin: 0.67; viability z-score without drug: 1.69
Idh3a → combined z-score class: no change with or without drug; viability z-score with doxorubicin: -1.8; viability z-score without drug: -0.51
Adcyap1 → combined z-score class: no change with or without drug; viability z-score with doxorubicin: 0; viability z-score without drug: 0.17
Txndc5 → combined z-score class: no change with or without drug; viability z-score with doxorubicin: 0.11; viability z-score without drug: -0.34
Tut4 → combined z-score class: no change with or without drug; viability z-score with doxorubicin: -0.67; viability z-score without drug: 0.34
Or6e1 → combined z-score class: no change with or without drug; viability z-score with doxorubicin: -0.45; viability z-score without drug: -0.17
Acbd4 → combined z-score class: no change with or without drug; viability z-score with doxorubicin: -0.45; viability z-score without drug: -0.51
1700128F08Rik → combined z-score class: no change with or without drug; viability z-score with doxorubicin: 0.45; viability z-score without drug: 1.35
Map2k4 → combined z-score class: no change with or without drug; viability z-score with doxorubicin: 1.57; viability z-score without drug: 1.52
Zfp386 → combined z-score class: no change with or without drug; viability z-score with doxorubicin: -0.34; viability z-score without drug: -0.34
Btbd16 → combined z-score class: no change with or without drug; viability z-score with doxorubicin: 0; viability z-score without drug: 0.84
Cavin1 → combined z-score class: no change with or without drug; viability z-score with doxorubicin: 0.67; viability z-score without drug: 0.67
Hint3 → combined z-score class: no change with or without drug; viability z-score with doxorubicin: -0.56; viability z-score without drug: -0.84
Fhip2a → combined z-score class: no change with or without drug; viability z-score with doxorubicin: 0.9; viability z-score without drug: -0.17
Ppig → combined z-score class: no change with or without drug; viability z-score with doxorubicin: 0.45; viability z-score without drug: 0.84
Map1lc3a → combined z-score class: no change with or without drug; viability z-score with doxorubicin: 0.22; viability z-score without drug: -1.18
Rpl28 → combined z-score class: no change with or without drug; viability z-score with doxorubicin: -1.35; viability z-score without drug: 0.51
Vps54 → combined z-score class: high cell count with doxorubicin only; viability z-score with doxorubicin: 2.02; viability z-score without drug: 1.85
Guk1 → combined z-score class: no change with or without drug; viability z-score with doxorubicin: 1.01; viability z-score without drug: 0.51
Ube2v1 → combined z-score class: high cell count with doxorubicin only; viability z-score with doxorubicin: 2.02; viability z-score without drug: 1.85

Single entries from the list.
Result of Cavin1 in “viability z-score without drug”: 0.67
Adcyap1, viability z-score without drug → 0.17
